Measured values: patent US9487570B2, “Glucagon like peptide analogs, composition, and method of use” (BETTA PHARMACEUTICALS CO., LTD, priority 2010, dated 2016)
For some assays here: At least one peptide structure holds a part that was inferred or is arguable (an end, a ring closure or a residue). At least one compound was matched to its structure with a doubt left.

Assays:
db/db mice = assay: Antihyperglycemic activity, oral glucose load in diabetes-induced db/db mice; assay type: in vivo; details: 100 μg/kg or 100 μg eq/kg intraperitoneally; for area under the blood glucose level to time (0-180 minutes) curve (AUC): db/db mice fasted 16 h, 1 g/kg glucose orally after 10 minutes; for decrease of blood glucose AUC as compared to the saline solution group: db/db mice, 1 g/kg glucose orally, 0-180 minutes
[1] = system: cloned human GLP-1 receptor; assay: cAMP formation in a cell line expressing the cloned human GLP-1 receptor; details: 2 h at 37 °C, cAMP by scintillation proximity assay; read-out: Cell based cAMP ED50

Row | SMILES | area under the blood glucose level to time (0-180 minutes) curve (AUC) (db/db mice) | decrease of blood glucose AUC as compared to the saline solution group (db/db mice) | EC50 [1]
1 | CCCCCCCCCCCCCCCC(=O)N[C@@H](CCC(=O)NCCCC[C@H](NC(=O)[C@H](C)NC(=O)[C@H](C)NC(=O)[C@H](CCC(N)=O)NC(=O)CNC(=O)[C@H](CCC(=O)O)NC(=O)[C@H](CC(C)C)NC(=O)[C@H](Cc1ccc(O)cc1)NC(=O)[C@H](CO)NC(=O)[C@H](CO)NC(=O)[C@@H](NC(=O)[C@H](CC(=O)O)NC(=O)[C@H](CO)NC(=O)[C@@H](NC(=O)[C@H](Cc1ccccc1)NC(=O)[C@@H](NC(=O)CNC(=O)[C@H](CCC(=O)O)N[C@@H]([C@H](C)NC(=O)[C@@H](N)Cc1c[nH]cn1)C(F)(F)F)[C@@H](C)O)[C@@H](C)O)C(C)C)C(=O)N[C@@H](CCC(=O)O)C(=O)N[C@@H](Cc1ccccc1)C(=O)N[C@H](C(=O)N[C@@H](C)C(=O)N[C@@H](Cc1c[nH]c2ccccc12)C(=O)N[C@@H](CC(C)C)C(=O)N[C@H](C(=O)N[C@@H](CCCNC(=N)N)C(=O)NCC(=O)N[C@@H](CCCNC(=N)N)C(=O)NCC(=O)O)C(C)C)[C@@H](C)CC)C(=O)O [N-ε^26-[γ-L-glutamyl(N-α-hexadecanoyl)]-[Q-linker-d8,Arg34]GLP-1-(7-37)-peptide] | 17520+2484 mg-min/dl | 49.7% | 0.068 nM
2 | CC[C@H](C)[C@H](NC(=O)[C@H](Cc1ccccc1)NC(=O)[C@H](CCC(=O)O)NC(=O)[C@H](CCCCN)NC(=O)[C@H](C)NC(=O)[C@H](C)NC(=O)[C@H](CCC(N)=O)NC(=O)CNC(=O)[C@H](CCC(=O)O)NC(=O)[C@H](CC(C)C)NC(=O)[C@H](Cc1ccc(O)cc1)NC(=O)[C@H](CO)NC(=O)[C@H](CO)NC(=O)[C@@H](NC(=O)[C@H](CC(=O)O)NC(=O)[C@H](CO)NC(=O)[C@@H](NC(=O)[C@H](Cc1ccccc1)NC(=O)[C@@H](NC(=O)CNC(=O)[C@H](CCC(=O)O)NC(=O)[C@H](C)NC(=O)[C@@H](N)Cc1c[nH]cn1)[C@@H](C)O)[C@@H](C)O)C(C)C)C(=O)N[C@@H](C)C(=O)N[C@@H](Cc1c[nH]c2ccccc12)C(=O)N[C@@H](CC(C)C)C(=O)N[C@H](C(=O)N[C@@H](CCCCN)C(=O)NCC(=O)N[C@@H](CCCNC(=N)N)C(N)=O)C(C)C [GLP-1(7-36) amide, reference compound] | 25165 ± 4463 mg·min/dL | 27.8% | –
